Our source for the binding values is PMC3412267.

Test [1] has as its target T1, human GST-SCGN fusion protein (full-length Secretagogin) (human) (UniProt O76038).
T1 sequence: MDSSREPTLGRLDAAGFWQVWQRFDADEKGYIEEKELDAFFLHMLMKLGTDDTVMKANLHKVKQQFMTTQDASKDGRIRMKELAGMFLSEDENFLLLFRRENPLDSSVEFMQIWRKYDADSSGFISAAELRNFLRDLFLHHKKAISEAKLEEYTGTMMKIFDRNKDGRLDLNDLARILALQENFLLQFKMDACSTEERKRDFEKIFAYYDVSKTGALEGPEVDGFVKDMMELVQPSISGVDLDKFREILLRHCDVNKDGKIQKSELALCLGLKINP
Nature of the test: pull-down; GST-SCGN on Glutathione-Sepharose 4B beads incubated with rat brain lysate in TPBS with 1 mM PMSF, 4°C, 90 min, without EDTA; elution with 10 mM EDTA; immunoblot with pan-Tau antibody; only the target purified.

Test [2] has as its target T2, Secretagogin (rat), endogenous in rat brain (rat (endogenous in rat brain)) (UniProt Q6R556).
T2 sequence: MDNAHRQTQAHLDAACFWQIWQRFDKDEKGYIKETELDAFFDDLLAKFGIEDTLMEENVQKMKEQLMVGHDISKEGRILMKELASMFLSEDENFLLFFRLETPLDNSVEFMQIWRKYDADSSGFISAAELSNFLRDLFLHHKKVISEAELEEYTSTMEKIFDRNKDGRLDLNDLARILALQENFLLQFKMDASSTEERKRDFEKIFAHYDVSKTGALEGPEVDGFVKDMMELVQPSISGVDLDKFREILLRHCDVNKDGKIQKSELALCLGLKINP
Nature of the test: co-IP; anti-Secretagogin antibody (D24 mAb) cross-linked to protein G magnetic beads, incubated with rat brain extract at 4°C for 2 h; washes with TPBS; elution with 100 mM glycine pH 2.0; immunoblot with anti-pan-Tau and anti-SCGN. (In general: In western blotting, separated proteins are transferred to a membrane and probed.)

Test [3] addresses T1, human GST-SCGN fusion protein (full-length Secretagogin) (human). Nature of the test: condition: only with EDTA (2.5, 5.0, 7.5 and 10.0 mM) in the lysate; pull-down; GST-SCGN on Glutathione-Sepharose 4B beads incubated with rat brain lysate in TPBS with 1 mM PMSF, 4°C, 90 min, with EDTA (2.5, 5.0, 7.5 or 10.0 mM) in the lysate; immunoblot with pan-Tau antibody; only the target purified.

These are yes or no findings as the source states them, for the method shown. Binding seen in cells or lysates may run through a third protein. For part of these data: Binding calls can cover weak binding; strength is not graded here. Where a sequence is shown, tags or fusion partners need not be part of it.

For the substance “microtubule-associated protein Tau, endogenous in rat brain (from UniProt P19332-5)”, the binding result in test [1] was “binds”; in test [2], “binds”; in test [3], “no binding”.
